Data source: PubChem BioAssay AID1259254 (NCATS, 2017)

Purpose: 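Gene knock-downs that lead to re-replication, shown by excess G2 DNA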 (primary screen)
System: human HCT116 colorectal cancer cells
Knock-down reagent: single siRNA against human genes
Duration: 3 days
Measurement: 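Nuclei stained with Hoechst and imaged; cell-cycle phase assigned by DNA content; G2 share scaled per plate, non-targeting siRNA 0%, GMNN siRNA 100%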
Scale: G2 robust z-score: higher = more G2 cells, more excess DNA replication
Call rule: 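An siRNA counts as active if its G2 robust z-score lies at least 5 MADs above the screen median; here such calls match roughly 38% of GMNN control or more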
Shown is an unselected part of about 59,000 deposited reagents. In the full data, about 1,550 (2.6%) are marked active. 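G2 share is only a proxy for re-replication; each gene was hit by three separate siRNAs, and active genes were retested.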 Further read-outs or replicates are left out here. The record does not give: the amount of reagent.

gene	PubChem SID	G2 robust z-score	outcome
TRIM72 (tripartite motif containing 72)	SID160725487	-0.664	inactive
TRIM72 (tripartite motif containing 72)	SID160768243	-0.291	inactive
TRIM72 (tripartite motif containing 72)	SID160768244	-0.626	inactive
CCNB1 (cyclin B1)	SID160737683	5.99	active
CCNB1 (cyclin B1)	SID160737694	0.627	inactive
CCNB1 (cyclin B1)	SID160737705	3.66	inactive
HOXC11 (homeobox C11)	SID160775238	-0.589	inactive
HOXC11 (homeobox C11)	SID160775239	-1.25	inactive
HOXC11 (homeobox C11)	SID160775240	-0.873	inactive
LHX5 (LIM homeobox 5)	SID160747575	0.448	inactive
LHX5 (LIM homeobox 5)	SID160747576	1.24	inactive
LHX5 (LIM homeobox 5)	SID160747577	0.356	inactive
ZNF705A (zinc finger protein 705A)	SID160767680	3.28	inactive
ZNF705A (zinc finger protein 705A)	SID160767681	-0.213	inactive
ZNF705A (zinc finger protein 705A)	SID160767682	-0.953	inactive
LRRC17 (leucine rich repeat containing 17)	SID160727443	2.36	inactive
LRRC17 (leucine rich repeat containing 17)	SID160727447	0.202	inactive
LRRC17 (leucine rich repeat containing 17)	SID160727450	-0.148	inactive
BHLHA15 (basic helix-loop-helix family member a15)	SID160724896	0.7	inactive
BHLHA15 (basic helix-loop-helix family member a15)	SID160724898	-0.931	inactive
BHLHA15 (basic helix-loop-helix family member a15)	SID160730699	0.0369	inactive
WDFY3 (WD repeat and FYVE domain containing 3)	SID160727896	0.14	inactive
WDFY3 (WD repeat and FYVE domain containing 3)	SID160727899	0.248	inactive
WDFY3 (WD repeat and FYVE domain containing 3)	SID160727900	0.199	inactive
UCK1 (uridine-cytidine kinase 1)	SID160751200	3.91	inactive
UCK1 (uridine-cytidine kinase 1)	SID160751201	0.017	inactive
UCK1 (uridine-cytidine kinase 1)	SID160751202	0.5	inactive
MPL (MPL proto-oncogene, thrombopoietin receptor)	SID160777422	1.74	inactive
MPL (MPL proto-oncogene, thrombopoietin receptor)	SID160777423	0.89	inactive
MPL (MPL proto-oncogene, thrombopoietin receptor)	SID160777424	-0.127	inactive
SCG3 (secretogranin III)	SID160739083	0.239	inactive
SCG3 (secretogranin III)	SID160739084	-0.176	inactive
SCG3 (secretogranin III)	SID160739085	0.566	inactive
TRPV5	SID160745023	-0.297	inactive
TRPV5	SID160745024	0.974	inactive
TRPV5	SID160745025	2.42	inactive
UCK2 (uridine-cytidine kinase 2)	SID160718620	-0.873	inactive
UCK2 (uridine-cytidine kinase 2)	SID160718621	2.16	inactive
UCK2 (uridine-cytidine kinase 2)	SID160718622	-0.606	inactive
HBS1L (HBS1 like translational GTPase)	SID160729180	-1.18	inactive
HBS1L (HBS1 like translational GTPase)	SID160729181	0.000865	inactive
HBS1L (HBS1 like translational GTPase)	SID160729182	-1.26	inactive
ZNF835 (zinc finger protein 835)	SID160753710	-0.934	inactive
ZNF835 (zinc finger protein 835)	SID160753711	-0.499	inactive
ZNF835 (zinc finger protein 835)	SID160753712	0.828	inactive
RERE (arginine-glutamic acid dipeptide repeats)	SID160721197	4.27	inactive
RERE (arginine-glutamic acid dipeptide repeats)	SID160721208	0.503	inactive
RERE (arginine-glutamic acid dipeptide repeats)	SID160721218	-1.11	inactive
